Substitutions are numbered along the chain they refer to. Numbers in names are those of the source. These are yes or no findings as the source states them, for the method shown. Binding seen in cells or lysates may run through a third protein. Some binding calls cover weakened binding; strength is not graded here. For some of these results: Where a sequence is shown, tags or fusion partners need not be part of it. Blank lines part the entries; values can stand above or below the binder they belong to.
What was measured:
Assay in all cases: cross-linking
[1] = target: Smc^4S-HaloTag with S152C and G302W (B. subtilis) (UniProt P51834)
[2] = target: Smc^4S-HaloTag with A715C and G302W (B. subtilis) (UniProt P51834)
[3] = target: Smc^4S(E1118Q, K1151C)-HT (B. subtilis) (UniProt P51834)
[4] = target: Smc^4S(K1151C)-HT (B. subtilis) (UniProt P51834)
[5] = target: Smc(GE, E1118Q) with K1151C (B. subtilis) (UniProt P51834)
[6] = target: Smc^4S-HaloTag with Q320C and K1151C (B. subtilis) (UniProt P51834)
[7] = target: Smc^4S(K37I, K1151C)-HT (B. subtilis) (UniProt P51834)

binding [1]: binds
B1: Smc^4S-HaloTag with S152C and G302W (protein, UniProt P51834 1-1186)
chain: MFLKRLDVIGFKSFAERISVDFVKGVTAVVGPNGSGKSNITDAIRWVLGEQSARSLRGGKMEDIIFAGSDSRKRLNLAEVTLTLDNDDHFLPIDFHEVSVTRRVYRSGESEFLINNQPSRLKDIIDLFMDSGLGKEAFSIISQGKVEEILSCKAEDRRSIFEEAAGVLKYKTRKKKAENKLFETQDNLNRVEDILHELEGQVEPLKIQASIAKDYLEKKKELEHVEIALTAYDIEELHGKWSTLKEKVQMAKEEELAESSAISAKEAKIEDTRDKIQALDESVDELQQVLLVTSEELEKLEWRKEVLKERKKNAVQNQEQLEEAIVQFQQKETVLKEELSKQEAVFETLQAEVKQLRAQVKEKQQALSLHNENVEEKIEQLKSDYFELLNSQASIRNELQLLDDQMSQSAVTLQRLADNNEKHLQERHDISARKAASETEFARIEQEIHSQVGAYRDMQTKYEQKKRQYEKNESALYQAYQYVQQARSKKDMLETMQGDFSGFYQGVKEVLKAKERLGGIRGAVLELISTEQKYETAIEIALGASAQHVVTDDEQSARKAIQYLKQNSFGRATFLPLSVIRDRQLQSRDAETAARHSSFLGVASELVTFDPAYRSVIQNLLGTVLITEDLKGANELAKLLGHRYRIVTLEGDVVNPGGSMTGGAVKKKNNSLLGRSRELEDVTKRLAEMEEKTALLEQEVKTLKHSIQDMEKKLADLRETGEGLRLKQQDVKGQLYELQVAEKNINTHLELYDQEKSALSESDEERKVRKRKLEEELSAVSEKMKQLEEDIDRLTKQKQTQSSTKESLSNELTELKIAAAKKEQASKGEEDNLARLKKELTETELALKEAKEDLSFLTSEMSSSTSGEEKLEEAAKHKLNDKTKTIELIALRRDQRIKLQHGLDTYERELKEMKRLYKQKTTLLKDEEVKLGRMEVELDNLLQYLREEYSLSFEGAKEKYQLETDPEEARKRVKLIKLAIEELGTVNLGSIDEFERVNERYKFLSEQKEDLTEAKNTLFQVIEEMDEEMTKRFNDTFVQIRSHFDQVFRSLFGGGRAELRLTDPNDLLHSGVEIIAQPPGKKLQNLNLLSGGERALTAIALLFSILKVRPVPFSVLDEVEAALDEANVFRFAQYLKKYSSDTQFIVITHRKGTMEEADVLYGVTMQESGVSKVISVKLEETKEFVQ

binding [2]: binds
B2: Smc^4S-HaloTag with A715C and G302W (protein, UniProt P51834 1-1186)
chain: B1 chain with C152S, A715C

binding [6]: binds
B6: Smc^4S-HaloTag with Q320C and K1151C (protein, UniProt P51834 1-1186)
chain: B1 chain with C152S, W302G, Q320C, K1151C

Continued, binder first:

B3: Smc^4S(E1118Q, K1151C)-HT (protein, UniProt P51834 1-1186)
chain: B1 chain with C152S, W302G, E1118Q, K1151C
binding [3]: binds

B4: Smc^4S(K1151C)-HT (protein, UniProt P51834 1-1186)
chain: B1 chain with C152S, W302G, K1151C
binding [4]: binds

B5: Smc(GE, E1118Q) with K1151C (protein, UniProt P51834 1-1186)
chain: B1 chain with C152S, W302E, E1118Q, K1151C
binding [5]: binds

B7: Smc^4S(K37I, K1151C)-HT (protein, UniProt P51834 1-1186)
chain: B1 chain with K37I, C152S, W302G, K1151C
binding [7]: binds
